The values below come from PubChem BioAssay AID2685 (National Center for Advancing Translational Sciences (NCATS), 2010).

The structures appear in SMILES notation. This is one part of the list. These are further read-outs of the screen, such as a control signal, another cell line or another target. No call is given for them. Most of these compounds were active or inconclusive in the main read-out, so they are no random draw. The note in brackets gives the kind of curve behind each potency; many fits are weak.

A short description of the assay: qHTS Assay for Lipid Storage Modulators in Drosophila S3 Cells.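 As to cell number change: cells counted by Cell Tracker Red CMTPX staining in the red channel.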 The following applies: BODIPY lipid droplet fluorescence, 18-24 h; for cell number change: measured here: cell count max response, cells fed with added oleic acid. In outline:
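Laser-scanning cytometry quantifies lipid droplet accumulation (500–530 nm total intensity; droplet/cell object ratio) in oleic acid-fed (400 uM added) Drosophila S3 cells treated with a concentration series. 20 uM Triacsin C defined 100% inhibition.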
A general note: In qHTS, concentration-response curves come from the screen itself.

Setting [1] is: measured here: lipid fluorescence (Fed channel) AC50, cells fed with added oleic acid.
The mark [2] stands for this setting: measured here: cell number channel AC50, cells fed with added oleic acid.

Turning to `C=CCn1c(C(CCCC)CC(O)COCC(C)C)n[nH]c1=S` (stereo not given), the half-maximal activity concentration (AC50) (usually the midpoint of the concentration-response curve, whichever way the signal moves) under setting [1] is 0.651 µM [rising, full curve, poor fit].
With `CC12CCC(=O)C=C1CCC1C2CCC2(C)C1CC[C@]2(O)C(=O)CO` (stereo not given in full), the cell number change worked out at 9.41%.
In the case of `COc1ccc(CCN2C(=O)CC(N3CCN(C/C=C/c4ccccc4)CC3)C2=O)cc1OC` (stereo not given), the cell number change was -6.53%.
With `O=C(c1cccc(S(=O)(=O)N2CCCCC2)c1)N1CCN(Cc2ccccc2)CC1`, the cell number change was -20.4%. For the same compound, the AC50 under setting [1] is 20.6 µM [falling, single point].
For `O=C1N/C(=N/N=C/c2ccco2)SC1Cc1ccccc1` (stereo not given), the cell number change is -36.8%. In addition, the AC50 under setting [2] is 3.66 µM [falling, full curve]. Further, the AC50 under setting [1] is 3.66 µM [falling, full curve].
In the case of `COc1ccc(OC)c(/C=N\NC(=O)CC(=O)NCCc2ccccc2)c1`, the cell number change was 11.3%. The AC50 under setting [2] is 4.61 µM [rising, partial curve, poor fit].
Turning to `CCc1cccc(N(CC(=O)NC2CCCCC2)C(=O)c2csnn2)c1`, the cell number change is 21.8%. For the same compound, the concentration at half-maximal activity (AC50) under setting [2] is 0.116 µM [rising, full curve, poor fit].
On to `Cc1cccc(NC(=O)C2CCCN2S(=O)(=O)c2ccc(F)cc2)c1C` (stereo not given), for which the cell number change was determined as 4.5%. Besides, the half-maximal activity concentration (AC50) under setting [1] is 18.4 µM [rising, single point].
As to `CCN(CC(=O)Nc1ccccc1OC)C(=O)/C=C/c1cccs1`, under setting [2], the AC50 was 2.91 µM [rising, single point].
For the compound `CCCN1CCN(C(=O)C2CCCN(c3ncnc4c3nc3n4CCCCC3)C2)CC1` (stereo not given), the cell number change was -4.72%.
Turning to `COc1ccc(-n2nc(C(=O)NCC(=O)NCCCN3CCC(C)CC3)c3ccccc3c2=O)cc1Cl`, the cell number change is -12.7%. Besides, the AC50 under setting [1] is 29.1 µM [rising, single point].
`O=C(COC(=O)C1CCCCC1)Nc1ccc(N2CCCCC2)cc1`: the cell number change is -20.6%. Moreover, the AC50 under setting [1] is 0.0206 µM [falling, full curve].
On to `Cc1ccc(C)c(SCC(=O)NC(=O)NCc2ccccc2)c1`, for which the AC50 under setting [1] is 0.058 µM [rising, full curve, poor fit].
Take `O=C(CCc1nc(-c2ccccc2Cl)no1)NCc1ccco1`: the cell number change was -31.4%. Moreover, under setting [2], the concentration at half-maximal activity (AC50) is 0.092 µM [falling, full curve]. Besides, the AC50 under setting [1] was 0.092 µM [falling, full curve].
Turning to `Cc1ccc(C(C)NC(=O)/C(C#N)=C\c2c(C)[nH]c3ccccc23)cc1` (stereo not given), the cell number change worked out at 14.5%. For the same compound, the AC50 under setting [2] was 0.0164 µM [rising, partial curve, poor fit]. The concentration at half-maximal activity (AC50) under setting [1] is 6.51 µM [rising, single point].
`O=C(O)c1ccccc1OCCOCCOc1ccccc1C(=O)O`: the cell number change turned out to be 6.09%. Also, the AC50 under setting [1] was 0.146 µM [falling, full curve, poor fit].
In the case of `COc1cc(-c2nnc(COC(=O)c3cc(C)nc4ccc(C)cc34)o2)cc(OC)c1OC`, under setting [1], the AC50 was 0.651 µM [rising, single point].
For `COc1cc(/C=C/C(=O)OCC(=O)Nc2cccc(Oc3ccccc3)c2)ccc1O`, the cell number change is -20.1%. For the same compound, under setting [1], the AC50 is 0.0326 µM [falling, full curve].
Take `CN(C)S(=O)(=O)c1cccc(NC(=O)COC(=O)CCC(=O)c2ccc(F)cc2)c1`: the cell number change is -11%. Also, the AC50 under setting [2] was 5.8 µM [falling, single point]. The concentration at half-maximal activity (AC50) under setting [1] was 4.11 µM [falling, single point].
Take `Cc1cccc2cc(COC(=O)c3ccccc3)c(=O)[nH]c12`: the cell number change is -10.5%. Also, under setting [2], the AC50 is 0.82 µM [rising, full curve, poor fit]. Under setting [1], the concentration at half-maximal activity (AC50) was 0.0651 µM [rising, full curve, poor fit].
`CCC(C(=O)Nc1nc(C)cs1)c1ccccc1` (stereo not given): the cell number change turned out to be 16.5%. Besides, the AC50 under setting [1] is 18.4 µM [rising, single point].
With `O=C(N/N=C1/CC2C=CCC12)c1ccco1` (stereo not given), the cell number change came out at 100%. Besides, the AC50 under setting [2] was 0.103 µM [rising, full curve, poor fit]. Moreover, the AC50 under setting [1] is 25.9 µM [rising, partial curve].
On to `COC(OC)c1ccc(C#N)c(=O)[nH]1`, for which the cell number change worked out at 22.6%. Further, under setting [2], the concentration at half-maximal activity (AC50) was 0.231 µM [falling, single point].
As for `COc1ccc(N2CCN(C(=O)NCc3cccc(OC)c3)CC2)cc1`, the cell number change was determined as 11.9%. For the same compound, the AC50 under setting [1] is 29.1 µM [rising, single point].
For the compound `O=C(NCc1ccco1)C(c1ccncc1)N(C(=O)Cn1nnc2ccccc21)c1ccccc1` (stereo not given), the cell number change is -27.8%. The concentration at half-maximal activity (AC50) under setting [1] is 29.1 µM [falling, single point].
On to `O=C(N/N=C1/CC2CCC1C2)c1cc2ccccc2cc1O` (stereo not given), for which the cell number change was 9.83%.
Consider `Cc1cccn2c(=O)c(C=C(C#N)C#N)c(N3CCN(c4ccccc4)CC3)nc12`, for which the cell number change was 57.7%. In addition, under setting [1], the AC50 was 0.00461 µM [falling, full curve, poor fit].
Consider `COc1ccc(OC)c(NC(=O)c2ccc(S(=O)(=O)N3CCOCC3)cc2)c1`, for which the cell number change is 7.08%. Also, under setting [1], the half-maximal activity concentration (AC50) was 0.082 µM [falling, single point].
With `Cc1cc(/C=C(/C#N)c2cccc(F)c2)c(C)n1-c1cccnc1`, the concentration at half-maximal activity (AC50) by setting is: under setting [2], 6.51 µM [rising, single point]; under setting [1], 6.51 µM [rising, single point].
`CCOC(=O)CC1C(=O)NC2CCCCC2N1C(=O)Nc1ccc(Cl)cc1` (stereo not given): the cell number change is -25.6%. In addition, the concentration at half-maximal activity (AC50) under setting [2] is 2.59 µM [falling, full curve, poor fit]. Also, the AC50 under setting [1] is 4.11 µM [falling, full curve].
Regarding `C[C@@H]1C=C[C@](Cc2ccccc2)(C(=O)NCC2CC2)N1C(=O)c1ccccc1`, the cell number change is 8.77%. Under setting [1], the AC50 is 16.4 µM [falling, partial curve].
Consider `Cc1nn(-c2ccccc2)c(Cl)c1C1C(C#N)=C(N)Oc2c1c(C)nn2-c1ccccc1` (stereo not given), for which the cell number change is 0.23%. Besides, under setting [1], the half-maximal activity concentration (AC50) is 2.31 µM [rising, full curve].
On to `Cc1c([N+](=O)[O-])cc(C(=O)Oc2ccc(Br)cc2C(=S)N2CCCCC2)cc1[N+](=O)[O-]`, for which the cell number change was -6.41%.
Take `Cc1cccc(NC(NC(=O)c2ccccc2[N+](=O)[O-])C(Cl)(Cl)Cl)c1` (stereo not given): the cell number change turned out to be 173%. The half-maximal activity concentration (AC50) under setting [2] is 29.1 µM [rising, single point]. The AC50 under setting [1] was 23.1 µM [rising, single point].
For `COc1ccc2c(c1)c(C(=O)N/N=C/c1cccs1)c(C)n2C`, the cell number change worked out at 20.2%. Moreover, the AC50 under setting [1] is 6.51 µM [rising, single point].
In the case of `OCC(Cc1ccccc1)NCc1ccccc1C(F)(F)F` (stereo not given), the cell number change came to 17%. Under setting [1], the half-maximal activity concentration (AC50) is 11.6 µM [falling, partial curve].
With `CCOc1ccc2c(c1)N(C(=O)CN1C(=O)CCC1=O)C(C)(C)C=C2C`, the cell number change was 21%. The AC50 under setting [1] is 16.4 µM [rising, single point].
On to `COc1cc(C(=O)NCc2ccc(-c3nc4ccccc4s3)cc2)cc(OC)c1OC`, for which the cell number change was -66%. Moreover, the AC50 under setting [2] is 29.1 µM [falling, single point]. Further, the concentration at half-maximal activity (AC50) under setting [1] is 29.1 µM [falling, single point].
With `COc1ccc([C@@H]2CC(=O)c3c(O)cc(O)cc3O2)cc1O`, the cell number change was 11.7%. For the same compound, the half-maximal activity concentration (AC50) under setting [2] is 6.51 µM [rising, single point].
Turning to `O=C(Nc1ccccc1)c1c(F)cccc1F`, the cell number change was determined as 33.6%. Besides, the AC50 under setting [2] is 13 µM [rising, partial curve, poor fit].
Take `CN(C(=O)COC(=O)CNC(=O)c1ccc(Cl)cc1Cl)c1ccccc1`: the cell number change was -49.6%. Also, the half-maximal activity concentration (AC50) under setting [1] was 32.6 µM [falling, single point].
As for `CCO[C@@H]1OC(C(=O)Nc2ccccc2)=C[C@H](c2ccc(Br)cc2)[C@H]1CCCO`, the cell number change is -21.5%. Besides, the AC50 under setting [1] was 11.6 µM [falling, partial curve, poor fit].
On to `COc1cccc(-c2ccc(NC(=O)C3CCCN(Cc4cnc(C)n4C)C3)cc2)c1` (stereo not given), for which the cell number change worked out at 5.45%. In addition, the AC50 under setting [2] was 6.51 µM [rising, single point]. Further, the half-maximal activity concentration (AC50) under setting [1] is 29.1 µM [rising, single point].
Take `CCN(CC(=O)NCc1ccc(F)cc1)C(=O)/C=C/c1ccc(S(=O)(=O)N(CC)CC)cc1`: the cell number change is -23.8%. For the same compound, the concentration at half-maximal activity (AC50) under setting [1] was 29.1 µM [falling, single point].
For `COc1ccc(Cl)cc1C(=O)NCCCSc1ccccc1`, the cell number change amounted to 19.2%. The concentration at half-maximal activity (AC50) under setting [1] was 9.2 µM [falling, partial curve].
As for `COc1cc(C(=O)NCCSc2ccc(F)cc2)cc(OC)c1OC`, under setting [2], the concentration at half-maximal activity (AC50) is 0.206 µM [rising, partial curve, poor fit].
For the compound `CC(=O)Nc1ccc(S(=O)(=O)N(C)CC(=O)OCC(=O)N2CCCCC2)cc1`, the cell number change was -51.7%. Besides, the AC50 under setting [2] was 5.8 µM [falling, full curve]. In addition, the AC50 under setting [1] was 29.1 µM [falling, single point].
Turning to `CC[C@H](C)[C@H](NC(N)=O)C(=O)Nc1ccc(NC(C)=O)cc1`, the cell number change was -47.4%. The concentration at half-maximal activity (AC50) under setting [2] is 7.31 µM [falling, partial curve]. Moreover, the AC50 under setting [1] was 9.2 µM [falling, partial curve, poor fit].
Take `CN(CCc1ccccn1)C1CC(=O)N(c2ccc(Cl)cc2)C1=O` (stereo not given): the cell number change amounted to 12.6%. Also, the AC50 under setting [1] was 0.731 µM [falling, partial curve, poor fit].
Consider `CC(C)Cn1c(SCC(=O)Nc2ncccn2)nc2ccccc21`, for which the AC50 is 6.51 µM [rising, single point] under setting [2] and 4.11 µM [rising, partial curve] under setting [1].
On to `O=C1CC(c2ccc(F)cc2)C2=C(CCCC2=O)N1` (stereo not given), for which the cell number change came out at 11.8%. Also, the AC50 under setting [1] is 29.1 µM [falling, single point].
Regarding `COc1ccc2[nH]c(=O)c(CN(c3ccccc3OC)S(=O)(=O)c3ccccc3)cc2c1`, the cell number change was -35.9%. The AC50 under setting [2] is 23.1 µM [falling, single point].
Turning to `COc1cc(CNCCSc2nnnn2C)cc(Br)c1OCc1ccc(F)cc1`, the cell number change was -13.3%.
`C[C@@H](NC(=O)c1nc[nH]c1C(=O)N(C)Cc1ccccc1)c1ccccc1`: the cell number change is -36.2%. The concentration at half-maximal activity (AC50) under setting [2] was 13 µM [falling, single point]. Moreover, the AC50 under setting [1] is 7.31 µM [falling, partial curve, poor fit].
`CN(C)c1ccc(-c2nn3c(-c4ccc(Cl)cc4Cl)nnc3s2)cc1`: the half-maximal activity concentration (AC50) reads like this: under setting [2], 0.92 µM [rising, partial curve]; under setting [1], 0.517 µM [rising, partial curve, poor fit].
Take `C=CCn1c(=O)c2ccccc2n2c(SCC(=O)NCCc3ccccc3)nnc12`: the cell number change is 15.1%. Further, the AC50 under setting [2] was 1.16 µM [rising, full curve, poor fit]. Further, under setting [1], the AC50 is 2.06 µM [rising, partial curve, poor fit].
